No constants are given. Whether binding was seen depends on the method and setting.
Columns and labels:
[1] = target: human calumenin (68-315) (human) (UniProt O43852); assay: SEC-MALS; Superdex 200 Increase 10/300 GL coupled to MALS/DLS/Ri; 25 mM Tris-Cl pH 7.5, 150 mM NaCl, 2.5 mM EGTA (apo protein, no Ca2+); both purified
[2] = target: human calumenin (68-315) (human) (UniProt O43852); assay: SEC-MALS; Superdex 200 Increase 10/300 GL coupled to MALS/DLS/Ri; 25 mM Tris-Cl pH 7.5, 150 mM NaCl, 2.5 mM CaCl2 (Ca2+-bound protein); both purified

B1: human calumenin (68-315) (domain or fragment, UniProt O43852 68-315)
chain: ESKERLGKIVSKIDGDKDGFVTVDELKDWIKFAQKRWIYEDVERQWKGHDLNEDGLVSWEEYKNATYGYVLDDPDPDDGFNYKQMMVRDERRFKMADKDGDLIATKEEFTAFLHPEEYDYMKDIVVQETMEDIDKNADGFIDLEEYIGDMYSHDGNTDEPEWVKTEREQFVEFRDKNRDGKMDKEETKDWILPSDYDHAEAEARHLVYESDQNKDGKLTKEEIVDKYDLFVGSQATDFGEALVRHDEF
With B1 the binding [1] was “no binding” and the binding [2] was “no binding”.

Reference: publication PMC4798761
